Assay results: patent publication CN114651011A
No constants are given. Whether binding was seen depends on the method and setting. Some entries that bind do so weakly or less than the wild type.

Key:
[1] = target: T1, linear 15-mer peptides of human CD43 with the consensus motif INEGSPLW (aa 71-78 of human CD43) (human); test: CD43 peptide microarray (15-mers), antibody at 10 and 100 μg/ml
T1 sequence (peptide): INEGSPLW

[2] = target: T2, linear 15-mer peptides of human CD43 with the highly basic consensus of SEQ ID NO: 50 (human); test: CD43 peptide microarray (15-mers), antibody at 10 and 100 μg/ml; called non-specific ionic binding by the filing
T2 sequence (peptide): RRPTLTTFFGRRK

[3] = target: T3, linear 15-mer peptides of human CD43 with the highly basic consensus RRRQKR (human); test: as above
T3 sequence (peptide): RRRQKR

Measured: binding

B1: h-UMG1 (人源化UMG1单克隆抗体, H3-L4) (antibody, human IgG1, kappa, V domains shown)
VH: EVQLVESGGGLVQPGGSLRLSCVASGFTFSSFGMHWVRQAPGKGLEWVAYISSGSGNFYYVDTVKGRFTISRDNAKNSLYLQMNSLRAEDTAVYYCARSTYYHGSRGAMDYWGQGTLVTVSS
VL: QVVMTQSPAFLSVTPGEKVTITCSASSSVSSMYWYQLKPDQAPKLLIYDTSKMASGVPIRFSGSGSGTDFTFTVSSVEAEDAATYYCQQWSSYPPITFGGGTKVEIKR
binds: all assays above
